Percent effect of library compounds

By UniProt entry, the sequences of proteins in these tests, tags left out. Residues count along the entry.
UniProt A4I591, 1-473: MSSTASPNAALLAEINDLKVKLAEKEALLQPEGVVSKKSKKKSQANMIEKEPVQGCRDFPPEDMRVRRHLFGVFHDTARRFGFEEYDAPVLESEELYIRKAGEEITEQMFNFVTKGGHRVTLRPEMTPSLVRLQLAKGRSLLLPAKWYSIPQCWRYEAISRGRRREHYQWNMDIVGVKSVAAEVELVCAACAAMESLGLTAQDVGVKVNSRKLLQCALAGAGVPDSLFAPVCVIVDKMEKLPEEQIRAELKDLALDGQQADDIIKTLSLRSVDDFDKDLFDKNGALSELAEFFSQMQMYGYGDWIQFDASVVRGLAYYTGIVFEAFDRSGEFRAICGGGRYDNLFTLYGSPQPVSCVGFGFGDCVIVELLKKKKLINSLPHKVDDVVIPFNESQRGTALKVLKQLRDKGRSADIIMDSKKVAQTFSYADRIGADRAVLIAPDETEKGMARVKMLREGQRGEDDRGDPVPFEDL

Source: ChEMBL document CHEMBL3988442, “University of Dundee, Small-Polar-MMV Screening Library” (2021).

Each number is a percent effect as filed.
The record does not define 0% and 100%; most values in the screen are far below 50% and negative numbers occur (in some assays of this library far below -100).
This is an unselected part of the compounds tested.

LiHisRS: 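Enzyme assay of histidyl-tRNA synthetase; the read-out is not stated. Target: Histidine-tRNA ligase, Leishmania infantum (UniProt A4I591). Tested at 30 µM. Direction is inferred from retests: higher values go with stronger inhibition. The assay is labelled LdHisRS but filed under L. infantum. Size under these conditions: about 69,000 compounds, about 410 of them at 50% or above in at least one test.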
Toxoplasma: 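Assay of Toxoplasma gondii numbers, read through their beta-galactosidase reporter with a colour substrate. Compounds at 10 µM. The record gives no direction; the compounds picked for IC50 retests had high values, so higher reads as fewer parasites. About 67,000 compounds were tested under these conditions; 0.38% (about 260) showed 50% or more at least once.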

COCC1CC2(CCN(C(=O)c3cc(C)oc3C)CC2)CN1C(C)C.O=C(O)C(F)(F)F (configuration not stated) gave Toxoplasma: -3.971%.
Cc1nc2c(c(NC(C)C)n1)CCN(Cc1cccnc1)CC2 gave LiHisRS: 12.28%.
CCCOc1ccc2c(c1)OCC(CNC1CCc3ncnn3C1)=C2 (configuration not stated) gave LiHisRS: 15%; Toxoplasma: 8.157%.
CN(C)C[C@]12COC[C@H]1CN(Cc1ccccn1)C2 gave LiHisRS: 15.79%.
COC(=O)N1CCC(CNC(=O)C2CCN(S(C)(=O)=O)CC2)CC1 gave LiHisRS: 19.51%; Toxoplasma: 6.168%.
CN(C(=O)NCCCN1CCCC1)C1CCN(c2ccccc2)C1=O (configuration not stated) gave LiHisRS: 24.8%; Toxoplasma: 45.02%.
CCN(CC)C1CCN(C(=O)NCc2cccc(NC(C)=O)c2)C1 (configuration not stated) gave LiHisRS: 11.5%; Toxoplasma: 12.43%.
Cl.c1cc(OCc2ccc3c(c2)OCO3)ccc1CNC1CC1 gave Toxoplasma: 4.173%.
Cc1cc(=O)n2ncnc2n1CC(O)COCc1ccccc1Cl (configuration not stated) gave LiHisRS: 8%; Toxoplasma: 1.903%.
Cc1ccc(N2N=C(C(N)=O)S(=O)(=O)c3cccnc32)cc1 gave LiHisRS: 8.696%.
Cc1[nH]ccc1C(=O)NCC1CC(=O)N(CCc2ccccc2)C1 (configuration not stated) gave LiHisRS: 2.778%; Toxoplasma: -12.07%.
CCc1ocnc1C(=O)N1CCN(c2ccc3ccccc3c2)CC1 gave LiHisRS: 47.54%; Toxoplasma: -5.556%.
COc1ccc(C2CC(=O)c3c(O)cc(O)cc3O2)cc1O (configuration not stated) gave LiHisRS: 19.44%; Toxoplasma: -5.534%.
CCN1CC2(CC1=O)CN(Cc1ccccn1)CCN(C(C)=O)C2 (configuration not stated) gave LiHisRS: 21.1%.
CN1CCN(c2ncccn2)CC1C(N)=O (configuration not stated) gave LiHisRS: -15.71%; Toxoplasma: 23.29%.
CC(CCc1ccccc1)NC(=O)Nc1cnn(CC(N)=O)c1 (configuration not stated) gave LiHisRS: 24.32%; Toxoplasma: 3.768%.
CSCC(C)NCc1ccc2[nH]c(C)c(C)c2c1 (configuration not stated) gave LiHisRS: 0%; Toxoplasma: 1.747%.
CCC(NC(=O)C1CCN(S(C)(=O)=O)CC1)c1ccc(C)cc1 (configuration not stated) gave LiHisRS: 8.235%; Toxoplasma: 0.8853%.
O=C(NCC1CC1)[C@@H]1C[C@@H]2CCN(Cc3ccccc3)C[C@H]2O1 gave LiHisRS: 5.556%.
CCOCCNc1nc(-c2ccncc2)nc2c1CCNCC2 gave LiHisRS: 22.37%; Toxoplasma: -6.442%.
O=C(NC1CC1)[C@H]1CC[C@@H]2[C@@H](CCN2CCOCc2ccccc2)O1 gave LiHisRS: 20%.
O=C(O)C(F)(F)F.[H][C@@]12CCN(c3ncc(F)cn3)[C@]1([H])CC[C@@H](C(=O)NCCOC)O2 gave Toxoplasma: 5.172%.
CN(C)C(=O)Cn1c(C2CC2)c(CN2CCC(O)CC2)c2cccnc21.Cl gave Toxoplasma: -0.493%.
Cc1nccn1C1CCCN(C(=O)c2cccc(OCC(N)=O)c2)C1 (configuration not stated) gave LiHisRS: 15.38%; Toxoplasma: -24.82%.
CC(=O)Nc1nc(-c2ccccc2)c[nH]1 gave LiHisRS: -1.695%; Toxoplasma: -10.01%.
Cn1cc(C(=O)Nc2ccnc(Oc3ccccc3)c2)ccc1=O gave LiHisRS: 11.76%; Toxoplasma: 10.52%.
Cc1ccc(O)c(CN2CCn3nc(C(=O)N4CCCC4)cc3C2)n1 gave LiHisRS: -22.95%; Toxoplasma: -4.269%.
O=C(O)C(F)(F)F.O=C(O)C(F)(F)F.[H][C@@]12C[C@H](C(=O)NCc3cccnc3)[C@@]([H])(CN(Cc3cccc(C)c3)C1)O2 gave Toxoplasma: 1.543%.
O=C(O)C(F)(F)F.[H][C@]12CCC[C@@]1(COCc1cccc(C)n1)CN(S(=O)(=O)N(C)C)C2 gave Toxoplasma: 4.482%.
CN(C)c1cnn(Cc2nc3ccccc3n2C)c(=O)c1 gave LiHisRS: 8.392%; Toxoplasma: -2.193%.
CCc1nnc2n1CCN(Cc1ccc(C(=O)N3CCCC3)cc1)C2 gave LiHisRS: 18.46%; Toxoplasma: 3.77%.
O=C(c1ccc(NC2CC2)nc1)N1CCCC(n2cccn2)C1 (configuration not stated) gave LiHisRS: -180%; Toxoplasma: 2.117%.
Cc1cc(C)n(C2CCCN(C(=O)Cc3cccs3)C2)n1 (configuration not stated) gave LiHisRS: 3.39%; Toxoplasma: 0.4922%.
Cc1ccc(-c2nc(CN3CCOC(c4ccccc4)C3)cs2)o1 (configuration not stated) gave LiHisRS: 15.38%; Toxoplasma: -5.078%.
CCc1cnc(N2CCC3(CC(=O)N(Cc4csc(C)n4)C3)C2)nc1 (configuration not stated) gave LiHisRS: 17.95%.
Cc1cnn(CC2CCN(CC(O)c3ccccc3Cl)CC2)c1 (configuration not stated) gave LiHisRS: 19.74%; Toxoplasma: 0.9512%.
O=C(O)C1(Cc2ccccc2Cl)CCN(c2ncccn2)CC1 gave LiHisRS: 11.48%; Toxoplasma: -3.42%.
Cc1oc(-c2ccco2)nc1CNC1CCCN(c2cccnn2)C1 (configuration not stated) gave LiHisRS: 2.778%; Toxoplasma: -0.8607%.

The first 2 entries again:

{"compound": "COCC1CC2(CCN(C(=O)c3cc(C)oc3C)CC2)CN1C(C)C.O=C(O)C(F)(F)F", "stereo": "configuration not stated", "Toxoplasma": -3.971}
{"compound": "Cc1nc2c(c(NC(C)C)n1)CCN(Cc1cccnc1)CC2", "LiHisRS": 12.28}